The supplement of paper PMC3334620
Over roughly 33,000 sequences, “E-score (-0.5 to 0.5)” has its median near -0.016; the highest 2% begin near 0.3. The list shows a part of the results.

Target: T1, Yer184c (UniProt P39961)
T1 sequence: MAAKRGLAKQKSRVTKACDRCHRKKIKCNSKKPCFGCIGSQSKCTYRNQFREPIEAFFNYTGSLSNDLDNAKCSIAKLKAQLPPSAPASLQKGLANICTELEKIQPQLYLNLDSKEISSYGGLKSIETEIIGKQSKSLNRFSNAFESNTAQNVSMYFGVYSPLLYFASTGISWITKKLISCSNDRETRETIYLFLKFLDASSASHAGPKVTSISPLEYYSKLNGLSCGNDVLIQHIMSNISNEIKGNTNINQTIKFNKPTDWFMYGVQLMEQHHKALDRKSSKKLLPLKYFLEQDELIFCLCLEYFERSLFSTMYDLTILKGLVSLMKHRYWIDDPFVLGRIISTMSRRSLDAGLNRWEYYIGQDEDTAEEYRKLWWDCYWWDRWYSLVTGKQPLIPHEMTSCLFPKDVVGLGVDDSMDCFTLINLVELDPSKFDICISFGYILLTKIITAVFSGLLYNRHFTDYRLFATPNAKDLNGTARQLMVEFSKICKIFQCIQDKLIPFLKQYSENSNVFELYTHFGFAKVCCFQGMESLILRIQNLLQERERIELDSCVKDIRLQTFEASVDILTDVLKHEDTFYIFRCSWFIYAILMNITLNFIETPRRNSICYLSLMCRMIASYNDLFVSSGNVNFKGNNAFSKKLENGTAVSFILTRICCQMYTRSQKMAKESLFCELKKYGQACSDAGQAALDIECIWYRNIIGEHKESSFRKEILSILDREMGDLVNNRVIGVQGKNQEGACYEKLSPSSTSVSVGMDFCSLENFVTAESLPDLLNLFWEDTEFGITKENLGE
Experiment: PBM E-score (8-mer binding enrichment) (E-score (-0.5 to 0.5)); higher = stronger / more preferred TF binding
Conditions: protein concentration: 100 nM; construct: GST-full length
Experimental: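 Universal 'all 10-mer' protein binding microarrays (Agilent AMADID 015681) probed with GST-tagged S. cerevisiae TFs (full-length or DBD) made by in vitro transcription/translation (PURExpress), about 100-200 nM. Bound TF was detected with fluorescent anti-GST. Each ungapped 8-mer (which stands for itself and its reverse complement) is scored by the PBM enrichment score (E-score), a modified Wilcoxon-Mann-Whitney statistic from -0.5 to +0.5, computed with the Universal PBM Analysis Suite. Scale: above 0.35 generally sequence-specific binding.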

Row | Sequence | PBM E-score
1 | ACCTCGGA | 0.291
2 | GCGGCACA | 0.129
3 | GACCCGGC | 0.206
4 | GGTTCGGA | 0.281
5 | CACGTTGA | 0.0141
6 | ATGAGCGA | 0.131
7 | AGCAAACG | 0.0263
8 | ATTTAACC | 0.179
9 | GTTTAGCA | 0.0727
10 | TCTACAGA | 0.0591
11 | ATGGGATG | -0.217
12 | ACCTAAGG | -0.233
13 | ATTTTCGC | 0.111
14 | CTGGCACA | -0.219
15 | CAAATGAC | -0.0388
16 | GCGTAGTA | -0.26
17 | AATAGCAC | -0.276
18 | GCCAGGCC | -0.0667
19 | AACTCAAC | 0.171
20 | GTCATCAA | -0.079
21 | CTCTGGAA | -0.0374
22 | ACAACAAA | 0.248
23 | CCTCGGCA | 0.367
24 | ACTACTTA | 0.0197
25 | TCCCGGGA | 0.337

Row | Sequence | PBM E-score
26 | GGCCAGAA | 0.00094
27 | CGCTTCGA | 0.103
28 | CAGACGAA | 0.191
29 | CGAGCAAA | 0.16
30 | AAACCGCG | 0.25
31 | CCGAGATA | 0.275
32 | CCCCTAGA | -0.34
33 | AGAAATCA | 0.201
34 | CCACACAC | 0.0377
35 | AACGCGCG | 0.135
36 | CTCCGGAC | 0.328
37 | ACCGAGGC | -0.0788
38 | GGTCTCGA | -0.0235
39 | GACGGTCA | -0.1
40 | ATGGAAAT | 0.144
41 | GGCAGCGA | -0.0163
42 | GGGATACA | 0.0377
43 | AAGCACCG | -0.149
44 | ATAGGGAT | -0.206
45 | GCGCCTGA | -0.049
46 | CACTGGAC | 0.0432
47 | GCGAGGAC | -0.246
48 | CGACGGAA | 0.171
49 | GTCACAAC | 0.16
50 | AGTTCATA | 0.0391

Row | Sequence | PBM E-score
51 | CTTGCTTC | 0.0781
52 | AGTGATGG | -0.0946
53 | CACCTGGG | -0.237
54 | AGCCACGA | -0.0889
55 | TAGAAAAA | 0.0993
56 | GAACGTCC | 0.078
57 | AACTATGA | 0.0401
58 | CCATCGAC | -0.103
59 | ATGGTAAC | 0.00478
60 | ATCGATAC | 0.0137
61 | AGGATAAC | -0.197
62 | AGGCCATA | -0.308
63 | ACTTAGTG | 0.0728
64 | CTACGCAA | -0.00413
65 | CCTAGCAG | -0.163
66 | GTTGGTTA | -0.0114
67 | AGTTTACG | 0.104
68 | AGTCTTAT | 0.0156
69 | CATGCTTC | 0.0497
70 | CGCGGTCC | 0.0964
71 | AAATGAAC | 0.0919
72 | GACAGATA | 0.06
73 | GTCATTAA | 0.194
74 | CAGCTACG | -0.127
75 | GCCACGTA | -0.318

Pulled one by one from the entries so far:
Row | Sequence | PBM E-score
73 | GTCATTAA | 0.194
55 | TAGAAAAA | 0.0993

(cont.)

Row | Sequence | PBM E-score
76 | GGGAAATA | 0.0562
77 | CTATCTGC | -0.139
78 | CCCGCAGC | -0.108
79 | CAACGGCA | 0.0695
80 | GGCAGTTA | -0.231
81 | GATCGCAA | 0.0463
82 | GACAGCCC | -0.0787
83 | CCGTAGGC | 0.0871
84 | ACATGCAC | -0.149
85 | GGATAGTA | 0.12
86 | CTGATTAC | 0.0851
87 | GTCACCGA | 0.0454
88 | TATTAGCA | 0.157
89 | CCCAGTTA | -0.231
90 | CACATGTA | -0.0674
91 | ACCGCCCG | 0.0393
92 | CTGTATTA | 0.154
93 | AGTCTCAT | -0.115
94 | CGTTGGTA | 0.0612
95 | GACTTTGA | 0.0566
96 | CCCAGTGA | -0.308
97 | ATAATATC | 0.188
98 | AAGTCGGG | -0.0402
99 | CTCGACAC | 0.00104
100 | CTATTGGA | 0.045

Row | Sequence | PBM E-score
101 | CTAGGGAA | -0.0485
102 | AGTGCAAC | -0.0368
103 | AAACGCAA | 0.127
104 | GTGTGGTA | -0.081
105 | GTGCTCGA | -0.0616
106 | CGCAATAC | 0.132
107 | GAGCATCC | -0.111
108 | GGTCGATA | -0.0139
109 | CGACTCCA | -0.221
110 | GAGATGAC | -0.0645
111 | CCCCATCG | -0.0742
112 | ATACGGCC | 0.153
113 | CGGACATA | 0.277
114 | GCCAAATA | -0.0118
115 | GTGGTGCA | -0.0956
116 | GCCGATCC | 0.133
117 | CCATCTGC | 0.0155
118 | AACCAGAC | -0.0727
119 | GGATACTA | 0.197
120 | ACACAGGC | -0.139
121 | GAACGTTA | -0.0507
122 | AAGAGTGG | -0.256
123 | GATCCCCC | -0.328
124 | GGAACCAA | 0.139
125 | CCGTCCAG | 0.122

Row | Sequence | PBM E-score
126 | TAACGCAA | 0.104
127 | CCGCGTAG | 0.00242
128 | GCTAAGCC | 0.023
129 | GATGATGC | -0.0188
130 | GTGCCATA | -0.235
131 | CGCAACAC | 0.0186
132 | GCGCAACC | -0.0711
133 | CACGGTAA | 0.145
134 | CATTACGG | 0.0073
135 | GGTCTAGA | -0.137
136 | GCGCATAC | -0.0925
137 | CTCCCCAA | -0.209
138 | AATTATTA | 0.19
139 | CGCTAGCC | -0.0896
140 | CTCCTCAA | -0.0877
141 | CCGATATA | 0.122
142 | GTTCCCAA | 0.0489
143 | ACGTCTAA | -0.0965
144 | CCTTTTCG | 0.155
145 | ATCTAAAG | 0.118
146 | AGTTGCCG | 0.118
147 | CCGTTCAG | 0.154
148 | CTTAGGCC | -0.0567
149 | CCAGTGCC | -0.213
150 | ATTTTGCA | 0.136

Some of the entries above in another layout.
Row	Sequence	PBM E-score
14	CTGGCACA	-0.219
26	GGCCAGAA	0.00094
32	CCCCTAGA	-0.34
42	GGGATACA	0.0377
76	GGGAAATA	0.0562
96	CCCAGTGA	-0.308
123	GATCCCCC	-0.328

Following part.

Row | Sequence | PBM E-score
151 | GACCGGCC | 0.203
152 | AGCCGTAT | 0.214
153 | CCGCGCAC | 0.00358
154 | AATCAAAA | 0.211
155 | CAATTAAC | 0.106
156 | CCCGCCGG | 0.237
157 | ACGTAGTC | -0.251
158 | GAGGCAGA | -0.245
159 | ACGCAGCC | -0.0498
160 | AAATTAGT | 0.237
161 | AAAAGCCG | 0.244
162 | GACAACAA | 0.08
163 | AGAGATAT | -0.122
164 | AGTGAAGA | -0.00891
165 | GAGTGCAC | -0.0537
166 | AATTTTCC | 0.295
167 | AGCGGAAG | 0.178
168 | AACATTTA | 0.0843
169 | AGCCATGA | -0.141
170 | GGGAGCCC | -0.346
171 | TAACTTCA | 0.172
172 | CTGTTGTA | 0.0492
